Source: paper doi:10.1101/798603
These are yes or no findings as the source states them, for the method shown. In cells and extracts the contact can be indirect. Some binding calls cover weakened binding; strength is not graded here.

Protein sequences, listed by entry. Tags and fused reporters are not part of them.
UniProt P32497: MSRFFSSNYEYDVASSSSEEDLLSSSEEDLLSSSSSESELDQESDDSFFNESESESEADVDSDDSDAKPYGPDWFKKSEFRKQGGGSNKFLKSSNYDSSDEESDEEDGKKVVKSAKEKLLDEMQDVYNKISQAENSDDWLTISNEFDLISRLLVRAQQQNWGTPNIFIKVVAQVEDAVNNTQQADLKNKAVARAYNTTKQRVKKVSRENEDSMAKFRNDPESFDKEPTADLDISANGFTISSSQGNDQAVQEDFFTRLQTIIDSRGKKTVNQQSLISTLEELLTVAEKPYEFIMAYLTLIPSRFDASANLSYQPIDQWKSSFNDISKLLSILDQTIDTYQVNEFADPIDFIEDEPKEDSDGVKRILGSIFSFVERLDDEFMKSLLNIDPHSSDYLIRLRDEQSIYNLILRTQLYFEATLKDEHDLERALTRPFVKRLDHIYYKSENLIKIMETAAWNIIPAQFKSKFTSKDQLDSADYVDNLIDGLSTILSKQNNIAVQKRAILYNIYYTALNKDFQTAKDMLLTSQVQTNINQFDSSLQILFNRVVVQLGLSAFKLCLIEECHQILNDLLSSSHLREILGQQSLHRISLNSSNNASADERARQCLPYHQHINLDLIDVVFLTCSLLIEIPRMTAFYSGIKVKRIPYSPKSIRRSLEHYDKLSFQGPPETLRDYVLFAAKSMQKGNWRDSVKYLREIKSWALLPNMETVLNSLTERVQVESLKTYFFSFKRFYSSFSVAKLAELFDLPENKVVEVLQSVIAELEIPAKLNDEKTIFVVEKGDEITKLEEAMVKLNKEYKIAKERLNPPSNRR

Tests used:
[1] = biological target: T1, Pat1-TAP (S. cerevisiae (endogenous in yeast cells)) (UniProt P25644); test: co-IP
T1 sequence: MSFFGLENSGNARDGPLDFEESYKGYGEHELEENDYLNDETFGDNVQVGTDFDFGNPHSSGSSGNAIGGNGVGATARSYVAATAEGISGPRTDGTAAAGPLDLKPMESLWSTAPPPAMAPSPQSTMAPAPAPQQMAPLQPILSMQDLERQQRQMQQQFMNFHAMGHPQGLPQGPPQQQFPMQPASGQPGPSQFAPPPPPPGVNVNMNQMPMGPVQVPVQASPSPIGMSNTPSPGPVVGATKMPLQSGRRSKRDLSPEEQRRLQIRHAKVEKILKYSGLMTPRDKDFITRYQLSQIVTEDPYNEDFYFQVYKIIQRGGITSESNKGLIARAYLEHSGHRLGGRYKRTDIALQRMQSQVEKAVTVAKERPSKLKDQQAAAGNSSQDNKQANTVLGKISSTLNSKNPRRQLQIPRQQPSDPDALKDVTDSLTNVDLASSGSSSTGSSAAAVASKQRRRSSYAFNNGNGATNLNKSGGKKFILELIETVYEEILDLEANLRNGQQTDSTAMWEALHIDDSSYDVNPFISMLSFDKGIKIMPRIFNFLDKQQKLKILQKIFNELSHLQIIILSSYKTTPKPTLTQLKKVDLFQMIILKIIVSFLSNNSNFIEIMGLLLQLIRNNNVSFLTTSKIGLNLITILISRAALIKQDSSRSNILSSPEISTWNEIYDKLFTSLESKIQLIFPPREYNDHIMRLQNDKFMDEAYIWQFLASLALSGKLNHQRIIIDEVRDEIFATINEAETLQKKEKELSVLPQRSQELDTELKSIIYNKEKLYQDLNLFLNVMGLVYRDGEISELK

[2] = biological target: Nip1-TAP (S. cerevisiae (endogenous in yeast cells)) (UniProt P32497); test: co-IP

B1: Rpb7 (protein, UniProt P34087 1-171)
chain: MFFIKDLSLNITLHPSFFGPRMKQYLKTKLLEEVEGSCTGKFGYILCVLDYDNIDIQRGRILPTDGSAEFNVKYRAVVFKPFKGEVVDGTVVSCSQHGFEVQVGPMKVFVTKHLMPQDLTFNAGSNPPSYQSSEDVITIKSRIRVKIEGCISQVSSIHAIGSIKEDYLGAI
binding [1]: binds
binding [2]: binds
